# Assay results: patent US4743584A (Merck & Co., Inc., priority 1986, dated 1988)
# Experiment: general procedure: Boc solid-phase peptide synthesis
# Settings: whole synthesis
substance,measurement,setting,value
Boc-PHPFKLLVF,final HPLC purity,"HPLC, scale of the general procedure 2 mmole",91%
same,crude mass,scale 2 mmole,1.76 g

# No end group written: not given here. *: point of attachment. Boc = CC(C)(C)OC(=O)*
